Test results as given in doi:10.1101/2025.09.25.678687.
No constants are given. Whether binding was seen depends on the method and setting. Binding seen in cells or lysates may run through a third protein. Some binding calls cover weakened binding; strength is not graded here. For some of these results: Sequences can lack the tags named with a protein.

Protein sequences, listed by entry. Tags and fused reporters are not part of them.
UniProt P35637: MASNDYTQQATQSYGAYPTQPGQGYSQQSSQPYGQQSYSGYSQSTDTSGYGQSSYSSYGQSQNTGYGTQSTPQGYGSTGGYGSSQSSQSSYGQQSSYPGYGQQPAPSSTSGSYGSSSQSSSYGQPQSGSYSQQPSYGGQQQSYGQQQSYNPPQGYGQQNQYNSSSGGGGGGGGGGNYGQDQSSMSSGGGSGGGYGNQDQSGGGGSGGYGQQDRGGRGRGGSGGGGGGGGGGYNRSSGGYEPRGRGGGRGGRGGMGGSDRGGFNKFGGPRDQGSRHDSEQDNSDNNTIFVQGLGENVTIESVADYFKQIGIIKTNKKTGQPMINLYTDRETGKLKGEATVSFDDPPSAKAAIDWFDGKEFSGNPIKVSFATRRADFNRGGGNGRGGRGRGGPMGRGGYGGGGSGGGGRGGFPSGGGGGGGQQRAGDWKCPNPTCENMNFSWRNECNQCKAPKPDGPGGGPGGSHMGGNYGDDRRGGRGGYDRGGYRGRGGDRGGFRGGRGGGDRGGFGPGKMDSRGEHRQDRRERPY
UniProt Q14157: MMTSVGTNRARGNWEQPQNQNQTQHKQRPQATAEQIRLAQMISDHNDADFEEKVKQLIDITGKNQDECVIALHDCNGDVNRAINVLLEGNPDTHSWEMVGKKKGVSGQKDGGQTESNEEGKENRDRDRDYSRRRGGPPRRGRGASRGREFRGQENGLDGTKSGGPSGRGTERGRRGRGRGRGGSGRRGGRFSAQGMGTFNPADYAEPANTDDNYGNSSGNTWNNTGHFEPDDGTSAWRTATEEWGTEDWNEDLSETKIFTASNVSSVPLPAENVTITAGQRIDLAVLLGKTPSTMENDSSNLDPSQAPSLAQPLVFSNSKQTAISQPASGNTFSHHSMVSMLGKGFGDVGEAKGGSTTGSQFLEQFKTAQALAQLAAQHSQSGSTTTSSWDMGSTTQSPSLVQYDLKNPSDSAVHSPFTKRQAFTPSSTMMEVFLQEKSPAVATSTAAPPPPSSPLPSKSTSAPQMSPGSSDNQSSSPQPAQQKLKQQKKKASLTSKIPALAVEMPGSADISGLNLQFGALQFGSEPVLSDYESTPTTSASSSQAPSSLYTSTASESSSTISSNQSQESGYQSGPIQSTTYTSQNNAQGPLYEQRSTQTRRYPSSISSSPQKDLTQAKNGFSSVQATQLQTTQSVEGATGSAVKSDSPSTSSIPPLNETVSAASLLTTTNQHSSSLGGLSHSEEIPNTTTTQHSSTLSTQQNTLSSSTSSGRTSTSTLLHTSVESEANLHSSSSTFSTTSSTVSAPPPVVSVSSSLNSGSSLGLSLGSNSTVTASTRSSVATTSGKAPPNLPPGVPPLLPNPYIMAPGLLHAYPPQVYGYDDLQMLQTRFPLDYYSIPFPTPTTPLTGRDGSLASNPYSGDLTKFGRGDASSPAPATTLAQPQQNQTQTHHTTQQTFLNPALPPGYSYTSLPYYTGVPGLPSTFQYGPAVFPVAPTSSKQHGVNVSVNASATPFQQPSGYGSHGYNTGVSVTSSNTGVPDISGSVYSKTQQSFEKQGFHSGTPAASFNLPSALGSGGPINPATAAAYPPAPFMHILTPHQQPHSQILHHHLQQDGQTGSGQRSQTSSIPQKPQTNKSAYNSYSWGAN
UniProt P15559: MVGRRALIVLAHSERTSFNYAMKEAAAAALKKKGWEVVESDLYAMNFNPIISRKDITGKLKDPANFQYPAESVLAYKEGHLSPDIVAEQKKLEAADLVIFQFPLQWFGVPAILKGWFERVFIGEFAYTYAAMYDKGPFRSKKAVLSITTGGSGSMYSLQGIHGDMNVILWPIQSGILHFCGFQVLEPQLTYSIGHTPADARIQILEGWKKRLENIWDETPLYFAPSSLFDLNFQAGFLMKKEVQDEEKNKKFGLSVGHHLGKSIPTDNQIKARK

Assays:
Assay in all cases: co-IP
[1] = biological target: T1, TIA1 cloned into the PKH3-HA vector, expressed in HEK-293T cells (human) (UniProt P31483)
T1 sequence: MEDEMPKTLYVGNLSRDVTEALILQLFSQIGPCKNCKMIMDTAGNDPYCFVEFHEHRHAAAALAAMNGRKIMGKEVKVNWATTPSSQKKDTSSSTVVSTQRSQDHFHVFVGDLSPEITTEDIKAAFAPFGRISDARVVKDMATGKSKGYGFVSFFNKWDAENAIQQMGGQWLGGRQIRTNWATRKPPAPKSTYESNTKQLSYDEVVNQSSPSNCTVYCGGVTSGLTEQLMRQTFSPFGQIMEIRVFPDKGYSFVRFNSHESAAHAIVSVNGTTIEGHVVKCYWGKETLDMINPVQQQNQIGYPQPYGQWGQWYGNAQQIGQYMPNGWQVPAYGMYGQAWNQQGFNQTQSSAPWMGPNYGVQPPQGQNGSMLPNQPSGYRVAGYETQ

[2] = biological target: FUS cloned into the PKH3-HA vector, expressed in HEK-293T cells (UniProt P35637)
[3] = biological target: T2, HA-tagged Caprin1, expressed in HEK-293T cells (UniProt Q14444)
T2 sequence: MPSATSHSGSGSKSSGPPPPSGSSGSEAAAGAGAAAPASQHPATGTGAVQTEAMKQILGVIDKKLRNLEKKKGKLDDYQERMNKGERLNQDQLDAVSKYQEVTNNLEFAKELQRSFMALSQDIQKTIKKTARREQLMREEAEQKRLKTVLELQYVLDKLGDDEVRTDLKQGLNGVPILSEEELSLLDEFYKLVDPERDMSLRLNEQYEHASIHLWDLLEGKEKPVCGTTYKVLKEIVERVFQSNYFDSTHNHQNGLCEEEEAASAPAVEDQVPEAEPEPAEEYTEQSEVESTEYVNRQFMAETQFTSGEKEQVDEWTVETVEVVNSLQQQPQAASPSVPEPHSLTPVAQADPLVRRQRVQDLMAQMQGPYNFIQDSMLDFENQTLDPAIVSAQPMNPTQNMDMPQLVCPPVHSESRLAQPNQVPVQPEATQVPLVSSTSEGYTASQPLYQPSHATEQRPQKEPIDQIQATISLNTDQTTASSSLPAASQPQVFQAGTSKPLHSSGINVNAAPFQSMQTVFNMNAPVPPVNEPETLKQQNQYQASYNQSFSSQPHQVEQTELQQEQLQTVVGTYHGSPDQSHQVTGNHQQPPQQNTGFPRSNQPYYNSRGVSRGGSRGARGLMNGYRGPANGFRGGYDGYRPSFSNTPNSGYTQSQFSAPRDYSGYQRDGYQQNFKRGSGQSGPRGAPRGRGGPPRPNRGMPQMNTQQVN

[4] = biological target: HA-tagged UBAP2L, expressed in HEK-293T cells (UniProt Q14157)

binding [1]: binds
binding [2]: binds
binding [3]: binds
binding [4]: binds
Substance: Flag-tagged NQO1 full length, expressed in HEK-293T cells (from UniProt P15559 1-274) (enzyme)
